Measured values as given in US20140248218A1, “ROS-SENSITIVE FLUORESCENT PROBES” (The Regents of the University of California, priority 2013, published 2014).

Assay: Fluorescence response of the probes to H2O2 (luminescence spectroscopy, fluorescence turn-on)
Assay type: physicochemical
Settings: for fluorescence of the compound in the absence of H2O2 / maximum λem after addition of H2O2: 50 mM HEPES pH 7.5
Description: Fluorescence emission spectra were recorded with a Perkin-Elmer LS-55 fluorescence spectrometer. To a 2.0 mL solution of probe of varying concentrations in HEPES buffer (50 mM, pH 7.5) was added H2O2 in HEPES to monitor fluorescence turn-on. Spectra were monitored over time at room temperature with quartz cuvettes.
To quantitate the fluorescence turn-on, a sample of each probe (1 μM in 50 mM HEPES pH 7.5) was prepared. An excess of H2O2 (300 eq, 300 μM) was added to the latent fluorophore and spectra were recorded until no increase in fluorescence intensity was observed, signifying a complete reaction. The collected initial and final emission spectrum were integrated, and the ratio reports the fluorescence turn on.
FBBBE and CBBE were evaluated for H2O2 sensitivity under simulated physiological conditions (50 mM HEPES, pH 7.5). For FBBBE, the installation of the benzyl protecting group forces the compound to remain in the closed lactone form, rendering FBBBE (and FBn) nonfluorescent. […] Along with the observed fluorescence increase, the absorption spectrum of FBBBE considerably changed upon H2O2 addition with a large increase in the visible absorption band (λmax=494 nm). The final spectrum recorded was identical to that of an authentic sample of fluorescein, providing additional proof that the probe was undergoing complete deprotection to the desired product (FIG. 7). […] FBBBE was incubated with different concentrations of H2O2 for 15 min and then the emission spectrum was collected.
The coumarin-based compound, CBBE, was nonfluorescent in the absence of H2O2. […] (FIG. 12).
Additional studies were performed to quantify the fluorescence turn-on for each probe to directly compare the sensitivity to H2O2. […] To determine the sensitivity of these probes in a more quantitative fashion, pseudo first-order kinetic measurements were performed using UV-Vis absorption spectroscopy. The observed rate constants for FBBBE and CBBE activation by H2O2 were kobs=3.1×10-5 s-1 and kobs=4.6×10-3 s-1, respectively. It was determined that the deprotection of CBBE was much faster than FBBBE. This may be likely due to the fact that FBBBE contains two boronic ester triggers that are required for complete release of the fluorophore. Recently, it has been shown that boronic ester based probes can be sensitive to other biologically relevant ROS, such as hypochlorite (—OCl) and peroxynitrite (—ONOO).^[26]

| SMILES | fluorescence of the compound in the absence of H2O2 | maximum λem after addition of H2O2 [nm] | visible absorption band λmax after H2O2 addition (50 mM HEPES pH 7.5, UV-Vis) [nm] |
| --- | --- | --- | --- |
| CC1(C)OB(c2ccc(COc3ccc4ccc(=O)oc4c3)cc2)OC1(C)C [CBBE, 7-((4-(4,4,5,5-tetramethyl-1,3,2-dioxaborolan-2-yl)benzyl)oxy)-2H-chromen-2-one] | nonfluorescent | 453 | – |
| CC1(C)OB(c2ccc(COc3ccc4c(c3)Oc3cc(OCc5ccc(B6OC(C)(C)C(C)(C)O6)cc5)ccc3C43OC(=O)c4ccccc43)cc2)OC1(C)C [FBBBE, 3′,6′-bis((4-(4,4,5,5-tetramethyl-1,3,2-dioxaborolan-2-yl)benzyl)oxy)-3H-spiro[isobenzofuran-1,9′-xanthen]-3-one] | nonfluorescent | 521 | 494 |
| CC1(C)OB(c2ccc(COc3ccc4c(-c5ccccc5C(=O)O)c5ccc(=O)cc-5oc4c3)cc2)OC1(C)C [FBBE, 2-(3-oxo-6-((4-(4,4,5,5-tetramethyl-1,3,2-dioxaborolan-2-yl)benzyl)oxy)-3H-xanthen-9-yl)benzoic acid] | highly fluorescent | – | – |
| O=C1OC2(c3ccc(OCc4ccccc4)cc3Oc3cc(OCc4ccccc4)ccc32)c2ccccc21 [FBn, 3′,6′-bis(benzyloxy)-3H-spiro[isobenzofuran-1,9′-xanthen]-3-one, reference compound] | nonfluorescent | – | – |
